# The other results are listed elsewhere or left out.
# B1: PhypaEULS3 (Physcomitrella patens) (protein)
# chain: MLPVRLHCKADPNFNLAAVPGQGPVMVPFSPNDDFQVWYKDVTMSTRVKDETGSSAFSLINKATGQALRHAPEDLAQCLLADYDSNALDQTVLWTMSEDMGQGYCCIRLASQITRNLDVFRGDKKSGGVKEGSPVITFAWKKQDNQIWKMITAILEQKLISEEDLNSAVDHHHHHH
# How the values were obtained:
# Assay in all cases: glycan array binding signal (z-score within array); higher = stronger binding
# Settings in all cases: glycan notation: IUPAC condensed, linker removed
# Fuc(a1-2)Gal = target: Fuc(a1-2)Gal
# Method in brief: (§1)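 From the Consortium for Functional Glycomics database, 3228 arrays were curated, keeping only those whose protein sequence was available. Binding is given as a within-array Z-score averaged across arrays sharing a protein sequence and across linkers. Negative Z-scores can be read as non-binding.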
# Fuc(a1-2)Gal(b1-3)GalNAc = target: Fuc(a1-2)Gal(b1-3)GalNAc
# Method in brief: as §1
# [1] = target: Fuc(a1-2)Gal(b1-3)GalNAc(a1-3)[Fuc(a1-2)]Gal(b1-4)Glc
# Method in brief: as §1
# [2] = target: Fuc(a1-2)Gal(b1-3)GalNAc(a1-3)[Fuc(a1-2)]Gal(b1-4)GlcNAc
# Method in brief: as §1
# [3] = target: Fuc(a1-2)Gal(b1-3)GalNAc(b1-3)Gal
# Method in brief: as §1
# [4] = target: Fuc(a1-2)Gal(b1-3)GalNAc(b1-3)Gal(a1-4)Gal(b1-4)Glc
# Method in brief: as §1
# [5] = target: Fuc(a1-2)Gal(b1-3)GalNAc(b1-4)[Neu5Ac(a2-3)]Gal(b1-4)Glc
# Method in brief: as §1
# Fuc(a1-2)Gal(b1-3)GlcNAc = target: Fuc(a1-2)Gal(b1-3)GlcNAc
# Method in brief: as §1
# [6] = target: Fuc(a1-2)Gal(b1-3)GlcNAc(b1-2)Man(a1-3)[Fuc(a1-2)Gal(b1-3)GlcNAc(b1-2)Man(a1-6)]Man(b1-4)GlcNAc(b1-4)GlcNAc
# Method in brief: as §1
# [7] = target: Fuc(a1-2)Gal(b1-3)GlcNAc(b1-2)Man(a1-3)[Fuc(a1-2)Gal(b1-3)GlcNAc(b1-2)Man(a1-6)]Man(b1-4)GlcNAc(b1-4)[Fuc(a1-6)]GlcNAc
# Method in brief: as §1
# [8] = target: Fuc(a1-2)Gal(b1-3)GlcNAc(b1-3)Gal(b1-4)Glc
# Method in brief: as §1
# [9] = target: Fuc(a1-2)Gal(b1-3)GlcNAc(b1-3)GalNAc
# Method in brief: as §1
# [10] = target: Fuc(a1-2)Gal(b1-3)GlcNAc(b1-3)[Fuc(a1-2)Gal(b1-3)GlcNAc(b1-6)]GalNAc
# Method in brief: as §1
# [11] = target: Fuc(a1-2)Gal(b1-3)GlcNAc(b1-3)[Gal(b1-4)GlcNAc(b1-6)]Gal(b1-4)Glc
# Method in brief: as §1
# [12] = target: Fuc(a1-2)Gal(b1-3)GlcNAc(b1-3)[Neu5Ac(a2-6)Gal(b1-4)GlcNAc(b1-6)]Gal(b1-4)Glc
# Method in brief: as §1
# [13] = target: Fuc(a1-2)Gal(b1-3)GlcNAc6S
# Method in brief: as §1
# [14] = target: Fuc(a1-2)Gal(b1-3)[Fuc(a1-4)]GlcNAc
# Method in brief: as §1
# [15] = target: Fuc(a1-2)Gal(b1-3)[Fuc(a1-4)]GlcNAc(b1-2)Man(a1-3)[Fuc(a1-2)Gal(b1-3)[Fuc(a1-4)]GlcNAc(b1-2)Man(a1-3)]Man(b1-4)GlcNAc(b1-4)GlcNAc
# Method in brief: as §1
# [16] = target: Fuc(a1-2)Gal(b1-3)[Fuc(a1-4)]GlcNAc(b1-2)Man(a1-3)[Fuc(a1-2)Gal(b1-3)[Fuc(a1-4)]GlcNAc(b1-2)Man(a1-6)]Man(b1-4)GlcNAc(b1-4)[Fuc(a1-6)]GlcNAc(b1-4)[Fuc(a1-6)]GlcNAc
# Method in brief: as §1
# [17] = target: Fuc(a1-2)Gal(b1-3)[Fuc(a1-4)]GlcNAc(b1-3)[Fuc(a1-3)[Gal(b1-4)]GlcNAc(b1-6)]Gal(b1-4)Glc
# Method in brief: as §1
# [18] = target: Fuc(a1-2)Gal(b1-3)[Fuc(a1-4)]GlcNAc(b1-3)[Gal(b1-4)GlcNAc(b1-6)]Gal(b1-4)Glc
# Method in brief: as §1
# Fuc(a1-2)Gal(b1-4)Glc = target: Fuc(a1-2)Gal(b1-4)Glc
# Method in brief: as §1
# Fuc(a1-2)Gal(b1-4)Glc6S = target: Fuc(a1-2)Gal(b1-4)Glc6S
# Method in brief: as §1
# Fuc(a1-2)Gal(b1-4)GlcNAc = target: Fuc(a1-2)Gal(b1-4)GlcNAc
# Method in brief: as §1
# [19] = target: Fuc(a1-2)Gal(b1-4)GlcNAc(b1-2)Man
# Method in brief: as §1
# [20] = target: Fuc(a1-2)Gal(b1-4)GlcNAc(b1-2)Man(a1-3)[Fuc(a1-2)Gal(b1-4)GlcNAc(b1-2)Man(a1-6)]Man(b1-4)GlcNAc(b1-4)GlcNAc
# Method in brief: as §1
# [21] = target: Fuc(a1-2)Gal(b1-4)GlcNAc(b1-2)Man(a1-3)[Fuc(a1-2)Gal(b1-4)GlcNAc(b1-2)Man(a1-6)]Man(b1-4)GlcNAc(b1-4)[Fuc(a1-6)]GlcNAc
# Method in brief: as §1
# [22] = target: Fuc(a1-2)Gal(b1-4)GlcNAc(b1-2)[Fuc(a1-2)Gal(b1-4)GlcNAc(b1-4)]Man(a1-3)[Fuc(a1-2)Gal(b1-4)GlcNAc(b1-2)Man(a1-6)]Man(b1-4)GlcNAc(b1-4)GlcNAc
# Method in brief: as §1
# [23] = target: Fuc(a1-2)Gal(b1-4)GlcNAc(b1-3)Gal(b1-4)GlcNAc
# Method in brief: as §1
# [24] = target: Fuc(a1-2)Gal(b1-4)GlcNAc(b1-3)Gal(b1-4)GlcNAc(b1-2)Man(a1-3)[Fuc(a1-2)Gal(b1-4)GlcNAc(b1-3)Gal(b1-4)GlcNAc(b1-2)Man(a1-6)]Man(b1-4)GlcNAc(b1-4)GlcNAc
# Method in brief: as §1
binder,measurement,setting,value
B1,glycan array binding signal (z-score),Fuc(a1-2)Gal,-0.732
same,glycan array binding signal (z-score),Fuc(a1-2)Gal(b1-3)GalNAc,-0.01
same,glycan array binding signal (z-score),[1],-0.837
same,glycan array binding signal (z-score),[2],0.874
same,glycan array binding signal (z-score),[3],1.04
same,glycan array binding signal (z-score),[4],0.597
same,glycan array binding signal (z-score),[5],0.158
same,glycan array binding signal (z-score),Fuc(a1-2)Gal(b1-3)GlcNAc,-0.291
same,glycan array binding signal (z-score),[6],-0.748
same,glycan array binding signal (z-score),[7],0.789
same,glycan array binding signal (z-score),[8],1.06
same,glycan array binding signal (z-score),[9],-0.129
same,glycan array binding signal (z-score),[10],-1.26
same,glycan array binding signal (z-score),[11],1.49
same,glycan array binding signal (z-score),[12],1.2
same,glycan array binding signal (z-score),[13],0.008
same,glycan array binding signal (z-score),[14],0.084
same,glycan array binding signal (z-score),[15],1.81
same,glycan array binding signal (z-score),[16],1.62
same,glycan array binding signal (z-score),[17],-0.777
same,glycan array binding signal (z-score),[18],0.267
same,glycan array binding signal (z-score),Fuc(a1-2)Gal(b1-4)Glc,-1.92
same,glycan array binding signal (z-score),Fuc(a1-2)Gal(b1-4)Glc6S,-1.86
same,glycan array binding signal (z-score),Fuc(a1-2)Gal(b1-4)GlcNAc,0.243
same,glycan array binding signal (z-score),[19],1.32
same,glycan array binding signal (z-score),[20],-0.351
same,glycan array binding signal (z-score),[21],0.143
same,glycan array binding signal (z-score),[22],-0.267
same,glycan array binding signal (z-score),[23],1.14
same,glycan array binding signal (z-score),[24],0.946

# 9 successive entries out of the list so far, quoted:
binder,measurement,setting,value
B1,glycan array binding signal (z-score),Fuc(a1-2)Gal,-0.732
same,glycan array binding signal (z-score),Fuc(a1-2)Gal(b1-3)GalNAc,-0.01
same,glycan array binding signal (z-score),[1],-0.837
same,glycan array binding signal (z-score),[2],0.874
same,glycan array binding signal (z-score),[3],1.04
same,glycan array binding signal (z-score),[4],0.597
same,glycan array binding signal (z-score),[5],0.158
same,glycan array binding signal (z-score),Fuc(a1-2)Gal(b1-3)GlcNAc,-0.291
same,glycan array binding signal (z-score),[6],-0.748
